Assay results as given in the supplement of paper PMC10849652.
Some of the results follow.

Amino acid sequences for entries named in this document (tags omitted). A change or cut given only in a name is not applied to a line headed by its entry.
UniProt Q9BSB4: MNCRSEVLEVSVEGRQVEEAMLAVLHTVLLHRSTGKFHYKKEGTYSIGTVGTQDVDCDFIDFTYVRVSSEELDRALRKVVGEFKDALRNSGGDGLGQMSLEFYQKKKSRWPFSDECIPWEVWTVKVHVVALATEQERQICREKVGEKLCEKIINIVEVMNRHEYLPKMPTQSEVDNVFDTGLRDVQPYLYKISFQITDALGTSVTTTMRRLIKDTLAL
UniProt O94766: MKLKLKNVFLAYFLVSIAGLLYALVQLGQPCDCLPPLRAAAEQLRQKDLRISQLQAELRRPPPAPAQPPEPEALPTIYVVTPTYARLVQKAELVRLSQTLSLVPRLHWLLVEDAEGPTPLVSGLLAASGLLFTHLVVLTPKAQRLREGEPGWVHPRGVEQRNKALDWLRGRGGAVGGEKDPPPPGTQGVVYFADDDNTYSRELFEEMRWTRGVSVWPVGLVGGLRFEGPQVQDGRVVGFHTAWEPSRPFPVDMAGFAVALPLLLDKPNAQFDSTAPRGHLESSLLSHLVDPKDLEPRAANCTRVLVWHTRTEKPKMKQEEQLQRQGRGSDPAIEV
UniProt Q9Y294, whole entry, looked up: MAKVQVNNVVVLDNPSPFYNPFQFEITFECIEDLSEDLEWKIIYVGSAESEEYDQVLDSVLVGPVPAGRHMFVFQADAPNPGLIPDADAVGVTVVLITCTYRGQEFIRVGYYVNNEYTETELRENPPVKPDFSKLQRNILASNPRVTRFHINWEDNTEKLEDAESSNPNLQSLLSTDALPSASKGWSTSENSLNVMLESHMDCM
UniProt P21281, whole entry, looked up: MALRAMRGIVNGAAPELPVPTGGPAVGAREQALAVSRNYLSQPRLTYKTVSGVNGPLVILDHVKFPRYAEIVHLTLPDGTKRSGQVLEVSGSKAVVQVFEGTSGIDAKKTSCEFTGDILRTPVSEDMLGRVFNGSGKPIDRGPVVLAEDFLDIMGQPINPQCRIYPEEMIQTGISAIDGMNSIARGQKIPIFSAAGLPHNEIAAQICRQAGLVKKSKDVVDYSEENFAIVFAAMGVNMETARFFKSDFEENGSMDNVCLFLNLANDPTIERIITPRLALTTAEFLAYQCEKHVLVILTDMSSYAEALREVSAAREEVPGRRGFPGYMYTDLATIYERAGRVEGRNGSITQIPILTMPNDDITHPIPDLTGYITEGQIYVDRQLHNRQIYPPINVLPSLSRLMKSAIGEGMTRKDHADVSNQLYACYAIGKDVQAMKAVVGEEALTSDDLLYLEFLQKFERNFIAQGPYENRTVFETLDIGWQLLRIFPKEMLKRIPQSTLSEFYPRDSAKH
UniProt B2RBV5: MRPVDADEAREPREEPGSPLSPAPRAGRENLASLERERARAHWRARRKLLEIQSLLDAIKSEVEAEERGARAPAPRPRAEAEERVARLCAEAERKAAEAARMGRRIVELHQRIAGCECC
UniProt Q9ULI0: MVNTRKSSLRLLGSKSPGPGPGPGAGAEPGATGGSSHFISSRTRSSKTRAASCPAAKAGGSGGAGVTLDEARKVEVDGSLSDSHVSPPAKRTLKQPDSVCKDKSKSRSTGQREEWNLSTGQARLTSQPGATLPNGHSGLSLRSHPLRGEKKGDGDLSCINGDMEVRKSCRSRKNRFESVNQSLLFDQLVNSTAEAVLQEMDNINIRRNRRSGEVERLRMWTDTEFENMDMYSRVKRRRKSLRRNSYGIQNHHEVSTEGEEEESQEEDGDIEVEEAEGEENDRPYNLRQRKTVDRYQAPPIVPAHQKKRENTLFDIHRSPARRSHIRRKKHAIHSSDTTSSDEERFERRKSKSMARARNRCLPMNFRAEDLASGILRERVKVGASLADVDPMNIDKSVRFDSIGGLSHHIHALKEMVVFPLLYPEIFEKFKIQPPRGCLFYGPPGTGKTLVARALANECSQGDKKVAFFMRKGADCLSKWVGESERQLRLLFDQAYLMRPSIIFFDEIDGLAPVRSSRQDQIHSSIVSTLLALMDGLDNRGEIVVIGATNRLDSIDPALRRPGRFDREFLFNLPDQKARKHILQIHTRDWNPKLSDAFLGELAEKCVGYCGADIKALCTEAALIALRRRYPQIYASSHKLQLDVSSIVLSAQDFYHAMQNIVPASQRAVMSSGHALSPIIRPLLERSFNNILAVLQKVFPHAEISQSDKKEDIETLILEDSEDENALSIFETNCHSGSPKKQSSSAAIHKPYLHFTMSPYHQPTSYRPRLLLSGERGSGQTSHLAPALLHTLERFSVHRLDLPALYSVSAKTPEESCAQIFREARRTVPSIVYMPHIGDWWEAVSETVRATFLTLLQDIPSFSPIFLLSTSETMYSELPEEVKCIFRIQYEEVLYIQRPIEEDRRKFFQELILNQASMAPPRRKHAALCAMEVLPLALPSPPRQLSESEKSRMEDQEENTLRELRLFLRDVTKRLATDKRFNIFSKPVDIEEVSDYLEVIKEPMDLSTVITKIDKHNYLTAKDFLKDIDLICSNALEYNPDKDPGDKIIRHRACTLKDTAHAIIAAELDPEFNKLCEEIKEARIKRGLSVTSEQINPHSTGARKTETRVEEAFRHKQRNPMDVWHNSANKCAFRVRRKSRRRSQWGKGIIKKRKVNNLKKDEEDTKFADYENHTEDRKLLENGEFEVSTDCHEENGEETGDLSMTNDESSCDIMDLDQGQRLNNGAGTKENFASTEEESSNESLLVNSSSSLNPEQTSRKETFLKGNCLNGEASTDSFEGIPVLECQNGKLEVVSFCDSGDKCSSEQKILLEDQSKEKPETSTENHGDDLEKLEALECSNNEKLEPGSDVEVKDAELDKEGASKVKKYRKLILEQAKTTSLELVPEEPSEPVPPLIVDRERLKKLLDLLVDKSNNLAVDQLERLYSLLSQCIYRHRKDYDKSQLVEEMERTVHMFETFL
UniProt P06576, whole entry, looked up: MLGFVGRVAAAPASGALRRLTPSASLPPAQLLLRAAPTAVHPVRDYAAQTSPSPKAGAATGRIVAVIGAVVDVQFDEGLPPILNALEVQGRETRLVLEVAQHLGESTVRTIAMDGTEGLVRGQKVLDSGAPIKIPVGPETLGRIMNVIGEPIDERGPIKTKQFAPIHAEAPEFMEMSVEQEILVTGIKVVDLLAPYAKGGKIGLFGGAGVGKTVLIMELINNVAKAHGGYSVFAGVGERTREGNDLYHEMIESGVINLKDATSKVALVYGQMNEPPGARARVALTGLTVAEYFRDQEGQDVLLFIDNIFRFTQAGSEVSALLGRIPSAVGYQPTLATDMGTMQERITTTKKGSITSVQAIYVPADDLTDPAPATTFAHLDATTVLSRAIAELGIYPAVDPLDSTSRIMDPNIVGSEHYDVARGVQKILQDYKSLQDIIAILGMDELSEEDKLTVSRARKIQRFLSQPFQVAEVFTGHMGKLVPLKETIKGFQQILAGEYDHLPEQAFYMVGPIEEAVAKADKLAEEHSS
UniProt Q8N3C0, whole entry, looked up: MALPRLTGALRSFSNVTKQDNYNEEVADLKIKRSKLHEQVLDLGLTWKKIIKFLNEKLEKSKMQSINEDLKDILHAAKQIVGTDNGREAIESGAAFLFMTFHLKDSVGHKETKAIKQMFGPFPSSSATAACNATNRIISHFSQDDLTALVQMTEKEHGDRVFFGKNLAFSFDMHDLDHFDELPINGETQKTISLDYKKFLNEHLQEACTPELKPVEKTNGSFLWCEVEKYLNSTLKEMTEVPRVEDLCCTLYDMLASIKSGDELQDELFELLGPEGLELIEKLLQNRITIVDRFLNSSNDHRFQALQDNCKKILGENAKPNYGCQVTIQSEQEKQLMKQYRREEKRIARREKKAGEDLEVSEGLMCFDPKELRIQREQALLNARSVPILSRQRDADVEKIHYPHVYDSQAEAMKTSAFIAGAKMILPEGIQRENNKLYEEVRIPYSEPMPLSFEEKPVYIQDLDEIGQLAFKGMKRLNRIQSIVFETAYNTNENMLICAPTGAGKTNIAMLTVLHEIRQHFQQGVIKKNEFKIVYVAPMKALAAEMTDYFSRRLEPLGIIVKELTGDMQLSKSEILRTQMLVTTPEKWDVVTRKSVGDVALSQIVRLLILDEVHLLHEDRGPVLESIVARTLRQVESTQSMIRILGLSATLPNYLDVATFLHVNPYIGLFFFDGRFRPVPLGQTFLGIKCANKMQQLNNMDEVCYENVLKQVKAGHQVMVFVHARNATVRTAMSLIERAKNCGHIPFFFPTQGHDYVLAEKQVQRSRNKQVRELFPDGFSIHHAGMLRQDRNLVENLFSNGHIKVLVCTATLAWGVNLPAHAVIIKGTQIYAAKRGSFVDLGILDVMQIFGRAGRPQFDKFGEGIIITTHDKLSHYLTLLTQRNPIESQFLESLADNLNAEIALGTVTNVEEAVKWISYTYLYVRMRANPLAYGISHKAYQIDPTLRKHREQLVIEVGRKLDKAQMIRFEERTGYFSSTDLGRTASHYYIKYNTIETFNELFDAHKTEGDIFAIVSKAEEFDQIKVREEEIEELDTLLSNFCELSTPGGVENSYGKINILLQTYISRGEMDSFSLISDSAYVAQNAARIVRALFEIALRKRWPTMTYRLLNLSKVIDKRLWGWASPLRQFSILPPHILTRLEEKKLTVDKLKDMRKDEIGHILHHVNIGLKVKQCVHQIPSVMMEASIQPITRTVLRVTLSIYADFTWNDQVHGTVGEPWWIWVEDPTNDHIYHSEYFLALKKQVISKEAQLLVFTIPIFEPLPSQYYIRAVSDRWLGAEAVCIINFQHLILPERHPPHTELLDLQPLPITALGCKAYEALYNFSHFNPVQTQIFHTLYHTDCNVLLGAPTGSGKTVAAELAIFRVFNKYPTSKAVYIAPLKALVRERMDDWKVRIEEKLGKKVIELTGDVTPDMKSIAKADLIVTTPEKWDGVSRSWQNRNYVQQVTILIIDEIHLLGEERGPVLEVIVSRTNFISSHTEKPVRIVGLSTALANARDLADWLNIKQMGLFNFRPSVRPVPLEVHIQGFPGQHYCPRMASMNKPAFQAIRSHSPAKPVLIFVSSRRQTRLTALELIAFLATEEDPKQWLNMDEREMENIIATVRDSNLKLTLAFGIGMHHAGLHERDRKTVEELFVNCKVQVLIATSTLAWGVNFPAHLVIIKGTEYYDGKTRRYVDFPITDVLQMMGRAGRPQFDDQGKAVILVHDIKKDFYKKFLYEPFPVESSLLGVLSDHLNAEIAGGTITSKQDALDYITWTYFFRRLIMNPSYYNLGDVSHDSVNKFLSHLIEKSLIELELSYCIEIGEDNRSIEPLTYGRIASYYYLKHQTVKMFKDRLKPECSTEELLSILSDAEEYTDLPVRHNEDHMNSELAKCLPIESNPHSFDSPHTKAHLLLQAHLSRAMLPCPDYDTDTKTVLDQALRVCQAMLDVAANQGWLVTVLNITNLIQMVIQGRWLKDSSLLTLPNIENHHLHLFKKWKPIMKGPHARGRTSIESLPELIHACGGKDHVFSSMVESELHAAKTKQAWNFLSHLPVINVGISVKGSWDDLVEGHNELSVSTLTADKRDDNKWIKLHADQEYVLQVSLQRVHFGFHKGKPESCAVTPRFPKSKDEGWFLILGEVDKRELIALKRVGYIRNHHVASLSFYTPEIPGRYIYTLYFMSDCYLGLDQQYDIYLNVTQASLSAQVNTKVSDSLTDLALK
UniProt Q96IX5: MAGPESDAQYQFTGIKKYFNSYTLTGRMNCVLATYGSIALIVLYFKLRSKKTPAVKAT
UniProt P18859: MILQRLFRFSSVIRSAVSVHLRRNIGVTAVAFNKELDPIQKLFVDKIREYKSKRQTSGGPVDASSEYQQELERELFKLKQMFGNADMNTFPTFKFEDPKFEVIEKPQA
UniProt Q7Z3C6: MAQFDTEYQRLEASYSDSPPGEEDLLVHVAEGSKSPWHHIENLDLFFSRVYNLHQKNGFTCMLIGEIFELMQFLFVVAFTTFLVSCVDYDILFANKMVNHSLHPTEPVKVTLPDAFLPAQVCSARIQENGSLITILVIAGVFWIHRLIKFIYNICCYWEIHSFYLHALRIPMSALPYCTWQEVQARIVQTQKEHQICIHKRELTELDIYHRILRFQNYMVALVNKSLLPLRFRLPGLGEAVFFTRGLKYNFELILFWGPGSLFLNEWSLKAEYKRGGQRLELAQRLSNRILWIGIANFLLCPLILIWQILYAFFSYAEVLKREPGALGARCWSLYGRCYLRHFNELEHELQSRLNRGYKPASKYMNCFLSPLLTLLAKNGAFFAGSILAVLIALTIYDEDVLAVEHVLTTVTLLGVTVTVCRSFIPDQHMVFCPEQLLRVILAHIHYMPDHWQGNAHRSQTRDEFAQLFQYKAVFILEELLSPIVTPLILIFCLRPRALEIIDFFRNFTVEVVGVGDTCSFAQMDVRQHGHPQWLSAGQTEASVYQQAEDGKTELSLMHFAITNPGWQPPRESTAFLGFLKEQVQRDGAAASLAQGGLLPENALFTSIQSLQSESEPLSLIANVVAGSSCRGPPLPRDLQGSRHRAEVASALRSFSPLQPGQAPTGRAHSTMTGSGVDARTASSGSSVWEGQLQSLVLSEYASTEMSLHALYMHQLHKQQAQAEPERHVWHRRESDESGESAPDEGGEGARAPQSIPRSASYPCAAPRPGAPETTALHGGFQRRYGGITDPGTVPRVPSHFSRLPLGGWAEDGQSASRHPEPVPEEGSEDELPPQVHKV

What was measured:
Assay in all cases: log2 fold change, soluble protein after heating vs DMSO (PISA); higher = thermal stabilisation; K562 lysate, 10 uM; active = over 0.2 and 3.5 SD of the protein, either way, in both replicates (recomputed)
[1] = compound: C1=CC=C(C=C1)[C@H](COC2=CC3=C(C=C2)NC(=O)N3)NC(=O)C4=CC=CN(C4=O)CC5=CC(=C(C=C5)F)F
Procedure, shortened: (§1)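 Thermal stability, expressed as log-two fold change relative to solvent controls, is given from duplicates. Crude K562 extract in PBS pH 7.4 with 1 mM MgCl2, at 1 mg/mL protein, was treated with 10 μM compound for 30 min and heated in aliquots for 3 min across 48°C-58°C. After pooling, adjustment to 0.5% NP-40 at 4°C and centrifugation at 21,000xg for 90 min, supernatant protein was measured by TMTpro 16plex LC-MS/MS with channel sums equalised.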

[2] = compound: CC1=C(SC2=C1C(=N[C@H](C3=NN=C(N32)C)CC(=O)N)C4=CC=C(C=C4)Cl)C
Procedure, shortened: as §1

[3] = compound: CC1=C2C(=CC=C1)N=C(N(C2=O)C3=CC=CC=C3C)CN4C=NC5=C(N=CN=C54)N
Procedure, shortened: as §1

[4] = compound: Cc1sc2c(c1C)C(c1ccc(Cl)cc1)=N[C@@H](CC(=O)OC(C)(C)C)c1nnc(C)n1-2
Procedure, shortened: as §1

[5] = compound: c1ccc([C@@H]2C[C@H]2NC2CCNCC2)cc1
Procedure, shortened: as §1

Measured: log2 fold change

ATG14 (UniProt Q6ZNE5)
inactive: [1] -0.109 | [2] 0.105 | [3] 0.092 | [4] -0.043

ATP2A3 isoform 2 (UniProt Q93084)
inactive: [1] -0.111 | [2] 0.049 | [3] 0.01 | [4] -0.066 | [5] 0.087

ATG2A (UniProt Q2TAZ0)
inactive: [1] -0.016 | [2] 0.012

ATG101 (UniProt Q9BSB4)
inactive: [1] 0.1 | [2] -0.045 | [3] 0 | [4] -0.048 | [5] -0.008

ATG4A (UniProt Q8WYN0)
inactive: [1] 0.008 | [2] 0.022 | [3] 0.068 | [4] -0.01 | [5] -0.103

B3GAT3 (UniProt O94766)
inactive: [1] -0.029 | [2] 0.083 | [3] 0.011 | [4] -0.001 | [5] -0.01

ASF1A (UniProt Q9Y294)
inactive: [1] 0.034 | [2] -0.01 | [3] 0.025 | [4] -0.024 | [5] -0.058

ATP6V1B2 (UniProt P21281)
inactive: [1] 0.054 | [2] 0 | [3] -0.033 | [4] -0.065 | [5] -0.022

NA (UniProt B2RBV5)
inactive: [1] -0.05 | [2] -0.113

ATL2 (UniProt Q8NHH9)
inactive: [1] -0.003 | [2] 0.023 | [3] 0.018 | [4] -0.064 | [5] -0.03

ATP5F1B (UniProt F8W079)
inactive: [1] 0.005 | [2] -0.255

ATP1B3 (UniProt P54709)
inactive: [1] 0.038 | [2] -0.014 | [3] -0.025 | [4] -0.027 | [5] -0.028

ATP5MPL (UniProt P56378)
inactive: [1] -0.013 | [2] -0.071 | [3] 0.007 | [4] -0.004 | [5] 0.014

ATP5MF-PTCD1 (UniProt G3V325)
inactive: [1] 0.002 | [2] -0.023 | [3] 0 | [4] 0.078 | [5] -0.062

ASRGL1 (UniProt Q7L266)
inactive: [1] -0.008 | [2] -0.013 | [3] 0.007 | [4] -0.032 | [5] 0.02

ATP5F1C isoform 2 (UniProt P36542)
inactive: [1] -0.041 | [2] 0.057

ATAD2B (UniProt Q9ULI0)
inactive: [1] 0.169 | [2] 0.05

ATP5PB (UniProt P24539)
inactive: [1] -0.055 | [2] -0.006 | [3] -0.014 | [4] 0.032 | [5] 0.015

ATP5F1B (UniProt P06576)
inactive: [1] 0.018 | [2] 0.016 | [3] -0.005 | [4] -0.015 | [5] 0.003

ASCC3 (UniProt Q8N3C0)
inactive: [1] -0.016 | [2] 0.062 | [3] 0.011 | [4] -0.029 | [5] 0

Five consecutive records already listed, quoted:
ATP2A3 isoform 2 (UniProt Q93084)
inactive: [1] -0.111 | [2] 0.049 | [3] 0.01 | [4] -0.066 | [5] 0.087

ATG2A (UniProt Q2TAZ0)
inactive: [1] -0.016 | [2] 0.012

ATG101 (UniProt Q9BSB4)
inactive: [1] 0.1 | [2] -0.045 | [3] 0 | [4] -0.048 | [5] -0.008

ATG4A (UniProt Q8WYN0)
inactive: [1] 0.008 | [2] 0.022 | [3] 0.068 | [4] -0.01 | [5] -0.103

B3GAT3 (UniProt O94766)
inactive: [1] -0.029 | [2] 0.083 | [3] 0.011 | [4] -0.001 | [5] -0.01

Remaining list, next part

ATP5MD (UniProt Q96IX5)
inactive: [1] -0.035 | [2] -0.043 | [3] -0.028 | [4] 0.14 | [5] -0.072

ATG4C (UniProt Q96DT6)
inactive: [1] 0.044 | [2] 0.05 | [3] -0.043 | [4] -0.015 | [5] -0.058

B2M (UniProt P61769)
inactive: [1] 0.044 | [2] -0.035 | [3] 0.012 | [4] -0.174 | [5] -0.027

ATP5PF isoform 2 (UniProt P18859)
inactive: [1] 0.085 | [2] -0.086 | [3] -0.05 | [4] 0.075 | [5] 0.228

ATP2C1 isoform 7 (UniProt P98194)
inactive: [1] -0.028 | [2] 0.033 | [3] 0.055 | [4] -0.026 | [5] -0.023

ATP13A2 (UniProt Q9NQ11)
inactive: [1] 0.035 | [2] 0.017 | [3] 0.005 | [4] -0.078 | [5] -0.02

ATG9A (UniProt Q7Z3C6)
inactive: [1] 0.014 | [2] 0.029 | [3] 0.028 | [4] -0.098 | [5] 0.022
